Measurements taken from the supplement of paper PMC8728848.
This is one part of the list.

How the values were obtained:
Assay in all cases: glycan array binding signal (z-score within array); higher = stronger binding
Conditions in all cases: glycan notation: IUPAC condensed, linker removed
[1] = molecular target: Fuc(a1-2)Gal(b1-3)[Fuc(a1-4)]GlcNAc(b1-3)[Fuc(a1-3)[Gal(b1-4)]GlcNAc(b1-6)]Gal(b1-4)Glc
Outline: (§1)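 The Consortium for Functional Glycomics database supplied 3228 glycan arrays, of which those lacking an available protein sequence were dropped. The binding signal, a within-array Z-score, was averaged across arrays of the same protein sequence and across linkers. Negative scores can be read as non-binding.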

[2] = molecular target: Fuc(a1-2)Gal(b1-3)[Fuc(a1-4)]GlcNAc(b1-3)[Gal(b1-4)GlcNAc(b1-6)]Gal(b1-4)Glc
Outline: as §1

[3] = molecular target: Fuc(a1-2)Gal(b1-4)Fuc(a1-3)]GlcNAc(b1-2)Man(a1-3)[Fuc(a1-2)Gal(b1-4)[Fuc(a1-3)]GlcNAc(b1-2)Man(a1-6)]Man(b1-4)GlcNAc(b1-4)GlcNAc
Outline: as §1

[4] = molecular target: Fuc(a1-2)Gal(b1-4)Glc
Outline: as §1

[5] = molecular target: Fuc(a1-2)Gal(b1-4)Glc6S
Outline: as §1

[6] = molecular target: Fuc(a1-2)Gal(b1-4)GlcNAc
Outline: as §1

[7] = molecular target: Fuc(a1-2)Gal(b1-4)GlcNAc(b1-2)Man
Outline: as §1

[8] = molecular target: Fuc(a1-2)Gal(b1-4)GlcNAc(b1-2)Man(a1-3)[Fuc(a1-2)Gal(b1-4)GlcNAc(b1-2)Man(a1-6)]Man(b1-4)GlcNAc(b1-4)GlcNAc
Outline: as §1

[9] = molecular target: Fuc(a1-2)Gal(b1-4)GlcNAc(b1-2)Man(a1-3)[Fuc(a1-2)Gal(b1-4)GlcNAc(b1-2)Man(a1-6)]Man(b1-4)GlcNAc(b1-4)[Fuc(a1-6)]GlcNAc
Outline: as §1

[10] = molecular target: Fuc(a1-2)Gal(b1-4)GlcNAc(b1-2)[Fuc(a1-2)Gal(b1-4)GlcNAc(b1-4)]Man(a1-3)[Fuc(a1-2)Gal(b1-4)GlcNAc(b1-2)Man(a1-6)]Man(b1-4)GlcNAc(b1-4)GlcNAc
Outline: as §1

[11] = molecular target: Fuc(a1-2)Gal(b1-4)GlcNAc(b1-3)Gal(b1-4)GlcNAc
Outline: as §1

[12] = molecular target: Fuc(a1-2)Gal(b1-4)GlcNAc(b1-3)Gal(b1-4)GlcNAc(b1-2)Man(a1-3)[Fuc(a1-2)Gal(b1-4)GlcNAc(b1-3)Gal(b1-4)GlcNAc(b1-2)Man(a1-6)]Man(b1-4)GlcNAc(b1-4)GlcNAc
Outline: as §1

[13] = molecular target: Fuc(a1-2)Gal(b1-4)GlcNAc(b1-3)Gal(b1-4)GlcNAc(b1-3)Gal(b1-4)GlcNAc
Outline: as §1

[14] = molecular target: Fuc(a1-2)Gal(b1-4)GlcNAc(b1-3)GalNAc
Outline: as §1

[15] = molecular target: Fuc(a1-2)Gal(b1-4)GlcNAc(b1-3)[Fuc(a1-2)Gal(b1-4)GlcNAc(b1-6)]GalNAc
Outline: as §1

[16] = molecular target: Fuc(a1-2)Gal(b1-4)GlcNAc(b1-3)[Fuc(a1-3)[Gal(b1-4)]GlcNAc(b1-6)]Gal(b1-4)Glc
Outline: as §1

[17] = molecular target: Fuc(a1-2)Gal(b1-4)GlcNAc(b1-6)GalNAc
Outline: as §1

[18] = molecular target: Fuc(a1-2)Gal(b1-4)GlcNAc6S
Outline: as §1

[19] = molecular target: Fuc(a1-2)Gal(b1-4)[Fuc(a1-3)]GlcNAc
Outline: as §1

[20] = molecular target: Fuc(a1-2)Gal(b1-4)[Fuc(a1-3)]GlcNAc(b1-2)Man(a1-3)[Fuc(a1-2)Gal(b1-4)[Fuc(a1-3)]GlcNAc(b1-2)Man(a1-6)]Man(b1-4)GlcNAc(b1-4)GlcNAc
Outline: as §1

[21] = molecular target: Fuc(a1-2)Gal(b1-4)[Fuc(a1-3)]GlcNAc(b1-2)Man(a1-3)[Fuc(a1-2)Gal(b1-4)[Fuc(a1-3)]GlcNAc(b1-2)Man(a1-6)]Man(b1-4)GlcNAc(b1-4)[Fuc(a1-6)]GlcNAc
Outline: as §1

[22] = molecular target: Fuc(a1-2)Gal(b1-4)[Fuc(a1-3)]GlcNAc(b1-2)Man(a1-6)[Fuc(a1-2)Gal(b1-4)[Fuc(a1-3)]GlcNAc(b1-2)Man(a1-3)]Man(b1-4)GlcNAc(b1-4)[Fuc(a1-6)]GlcNAc
Outline: as §1

[23] = molecular target: Fuc(a1-2)Gal(b1-4)[Fuc(a1-3)]GlcNAc(b1-2)[Fuc(a1-2)Gal(b1-4)[Fuc(a1-3)]GlcNAc(b1-4)]Man(a1-3)[Fuc(a1-2)Gal(b1-4)[Fuc(a1-3)]GlcNAc(b1-2)Man(a1-6)]Man(b1-4)GlcNAc(b1-4)GlcNAc
Outline: as §1

B1: Gal 10 (Homo sapiens), Q05315 (protein)
chain: MSLLPVPYTEAASLSTGSTVTIKGRPLVCFLNEPYLQVDFHTEMKEESDIVFHFQVCFGRRVVMNSREYGAWKQQVESKNMPFQDGQEFELSISVLPDKYQVMVNGQSSYTFDHRIKPEAVKMVQVWRDISLTKFNVSYLKR
[1]
  glycan array binding signal (z-score): 0.276
[2]
  glycan array binding signal (z-score): -0.403
[3]
  glycan array binding signal (z-score): 0.408
[4]
  glycan array binding signal (z-score): 1.26
[5]
  glycan array binding signal (z-score): -0.411
[6]
  glycan array binding signal (z-score): -0.051
[7]
  glycan array binding signal (z-score): -0.622
[8]
  glycan array binding signal (z-score): 0.432
[9]
  glycan array binding signal (z-score): 0.095
[10]
  glycan array binding signal (z-score): 0.354
[11]
  glycan array binding signal (z-score): -0.5
[12]
  glycan array binding signal (z-score): -0.302
[13]
  glycan array binding signal (z-score): -0.692
[14]
  glycan array binding signal (z-score): 0.525
[15]
  glycan array binding signal (z-score): 0.169
[16]
  glycan array binding signal (z-score): -0.852
[17]
  glycan array binding signal (z-score): 1.5
[18]
  glycan array binding signal (z-score): -0.512
[19]
  glycan array binding signal (z-score): -0.194
[20]
  glycan array binding signal (z-score): 0.151
[21]
  glycan array binding signal (z-score): -0.642
[22]
  glycan array binding signal (z-score): 1.69
[23]
  glycan array binding signal (z-score): 0.81
